# Measured values: PubChem BioAssay AID2417 (National Center for Advancing Translational Sciences (NCATS), 2010)
# The whole screen tested about 140,000 compounds, of which about 4,300 (3.1%) were called active. Inconclusive results, whose numbers are uncertain, are shown with a selection of clear calls.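 The calls were made as follows: active = readout at or below -70, meaning at least 70% loss of cells showing the perinucleolar compartment, a nuclear body marking cancer cells; inconclusive = readout between -30 and a set limit; inactive = the rest.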
# Test: High Content Assay for Compounds that inhibit the Assembly of the Perinucleolar Compartment;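 also: plate controls were DMSO wells for no effect and camptothecin positive control wells for full effect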
# Settings: PC3M PTB-GFP, PNC prevalence imaging, 16 h; at 10 µM; hits give low values
# Outline: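 Read-out is percentage of cells bearing a perinucleolar compartment, from automated 20x imaging of fixed, Hoechst-stained PC3M PTB-GFP cells. Cells were seeded 4 h, then exposed 16 h to compound (23 nl of library stock) in duplicate plates.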
row,Structure (SMILES),"activity change (PNC), negative = inhibition"
1,O=C(NCc1ccccn1)c1ccc2nc(-c3ccco3)c(-c3ccco3)nc2c1,inconclusive: -79.3%
2,CCOc1ccc(CNc2ccc3c(c2)ncn3C)cc1,inconclusive: -45.3%
3,O=C(Nc1ccc(OC(F)F)c(Cl)c1)c1cccc(OC(F)F)c1,inactive: 7.56%
4,CCN1C(=O)c2cccc3c(NC(=O)c4cccc(N5C(=O)CCC5=O)c4)ccc1c23,inactive: 3.94%
5,CCOc1cc(Cl)c(NC(=O)CC)cc1OCC,active: -114%
6,Cc1onc(-c2c(F)cccc2Cl)c1C(=O)N1CCc2ccccc2C1,inconclusive: -54%
7,COc1ccc(CN2CCC(CNC(=O)NC3CCCCC3)CC2)cc1,inconclusive: -59.4%
8,Cc1cc(=O)oc(C)c1C(=O)OCC(=O)c1ccc(Cl)cc1,inactive: -6.8%
9,CCOC(=O)c1oc2ccccc2c1CN1CCOCC1,inactive: 11%
10,COc1cccc(-c2cc(=O)c3cc(NC(=O)c4ccc(Cl)cc4)ccc3[nH]2)c1,inconclusive: -73.9%
11,CN=C(Nc1ccc(C(=O)OC)cc1)SC1CC(=O)N(c2ccccc2F)C1=O (stereo not given),active: -108%
12,Cc1cc2c(N3CCCCC3C)ncnc2s1 (stereo not given),inconclusive: -44.6%
13,CCc1ccc(-c2nc(C(N)=O)c3[nH]c(=O)n(-c4ccccc4OC)c3n2)cc1,active: -106%
14,CC(=O)Nc1cc(-c2nn(CC(=O)N3CCCCC3)c(=O)c3ccccc23)ccc1N1CCOCC1,inconclusive: -39.6%
15,COC(=O)c1ccccc1NC(=O)c1ccc(Cn2cc(Cl)cn2)o1,inactive: 43.3%
16,Oc1c(Cl)cc(Cl)cc1C=Nc1ccc2c(c1)OCCO2,inconclusive: -45.4%
17,CC(C)c1ccc(S(=O)(=O)N2CCN(C(=O)c3cccc(F)c3)CC2)cc1,inconclusive: -76.6%
18,Cc1ccc2c(C(=O)CN3CCN(C4CCCCC4)CC3)c(C)[nH]c2c1,inconclusive: -40.7%
19,CC(C)C(NC(=O)c1cccs1)c1nnc(SCC(=O)Nc2nccs2)n1C (stereo not given),inconclusive: -72%
20,CN(C)c1ccc(N/C=C/C(=O)c2ccccc2)cc1,inconclusive: -57.7%
21,NC(=O)c1c(NC(=O)COC(=O)CSc2nnc(-c3ccc(Cl)cc3)o2)sc2c1CCC2,inactive: 95.2%
22,O=C(c1ccc(N2CCCC2=O)cc1)N1CCCCCC1,inactive: 80.6%
23,COC(=O)CCc1c(C)c(C(=O)c2ccco2)c2ccccn12,inconclusive: -55.7%
24,CCCCC(=O)Nc1ccc(C(=O)NNC(=S)NC(=O)c2cccs2)cc1,inconclusive: -69.5%
25,Cn1cc(/C=C/c2nc3ccccc3c(=O)n2-c2cccc([N+](=O)[O-])c2)c2ccccc21,inconclusive: -56.7%

# Copied from above: compounds 9 to 10
row,Structure (SMILES),"activity change (PNC), negative = inhibition"
9,CCOC(=O)c1oc2ccccc2c1CN1CCOCC1,inactive: 11%
10,COc1cccc(-c2cc(=O)c3cc(NC(=O)c4ccc(Cl)cc4)ccc3[nH]2)c1,inconclusive: -73.9%
